Here are results for 35 sequences from patent US20150232852.

The chains behind the UniProt entries cited, without tags or fusion partners. Residues count along the entry.
UniProt P01275, 53-81: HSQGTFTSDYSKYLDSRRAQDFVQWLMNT
UniProt P01275, 53-89: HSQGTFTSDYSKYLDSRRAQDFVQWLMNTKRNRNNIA
UniProt P01275, 98-128: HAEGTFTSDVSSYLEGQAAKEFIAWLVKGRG
UniProt P09681, 52-93: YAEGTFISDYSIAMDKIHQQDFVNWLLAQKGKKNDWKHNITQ

The exact form of at least one protein or probe is not confirmed. For some of these results: Negatives hold for the conditions tested. For some of these results: Where a protein sequence is shown, tags need not be part of it. For some of these results: Weaker means in comparison with the reference protein, sequence or condition of that experiment.

Usually IC50 stands for the concentration that gives 50% inhibition. A higher IC50 goes with weaker potency in that assay.

The target in series [1] is glucagon, free peptide (cAMP assay) (Homo sapiens) (UniProt P01275). In words: activity in cells. As to conditions: mirror-image nucleic acid; for functional effect of the aptamer: purified recombinant protein, synthetic backbone, dose not given here; for IC50: 5'-40 kDa PEG, glucagon-induced cAMP, 37 C.
For series [2], the target named is GIP (glucose-dependent insulinotropic polypeptide) (Homo sapiens) (UniProt P09681). Kind of series: activity in cells. As to conditions: L-DNA, RIN-m5F cells, single-stranded DNA, mirror-image nucleic acid, dose not given here.
Series [3] concerns the target glucagon, L-form, biotinylated (glucagon1-29-AEEAc-AEEAc-biotin) (Homo sapiens) (UniProt P01275). Kind of series: competition with a labelled probe. As to conditions: mirror-image nucleic acid.
Series [4] has as its target oxyntomodulin (OXM) (UniProt P01275). In words: competition with a labelled probe. As to conditions: comparable to glucagon, mirror-image nucleic acid.
For series [5], the target named is GLP-1(7-37) (Homo sapiens) (UniProt P01275). In words: competition with a labelled probe. As to conditions: not recognized, mirror-image nucleic acid.
For series [6], the target named is glucagon, L-form, biotinylated (glucagon1-29-AEEAc-AEEAc-biotin) (Homo sapiens) (UniProt P01275). In words: SPR. The following applies: synthetic protein, mirror-image nucleic acid.
The target in series [7] is T1, Prepro-VIP(81-122) (PHV-42) (Homo sapiens) (UniProt P01282).
T1 sequence: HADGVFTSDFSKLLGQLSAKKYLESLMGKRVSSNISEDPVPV
Kind of series: competition with a labelled probe. The following applies: 5'-40 kDa PEG, mirror-image nucleic acid.

Series [8] relates to GLP-2(1-33). Kind of series: competition with a labelled probe. The following applies: 5'-40 kDa PEG, not recognized, competitor up to 2000 nM, mirror-image nucleic acid.
The mark [9] stands for this setting: L-DNA with six L-ribonucleotides as printed in Table 1, competitive pull-down, 37 C, synthetic protein, synthetic backbone.
Setting [10] is: L-DNA with L-ribonucleotides rG,rG,rG,rG,rA,rA at central-stretch positions 2,8,11,12,22,23, not reduced vs 257-E1-6xR-001, synthetic protein, variant of 257-E1-6xR-001.
[11] abbreviates: L-DNA with L-ribonucleotides rG,rG,rG,rG,rA,rA at central-stretch positions 2,8,11,12,22,23, reduced vs 257-E1-6xR-001, synthetic protein, variant of 257-E1-6xR-001.
[12] abbreviates: L-DNA with six L-ribonucleotides, purified recombinant protein, synthetic backbone.
[13] abbreviates: L-DNA with seven L-ribonucleotides, purified recombinant protein, synthetic backbone.

As for “ACTCGAGAGGAAAGGTTGGTAAAGGTTCGGTTGGATTCACTCGAGT [259-H6-002 (spiegelmer)]”, the “functional effect of the aptamer” value in series [1] (L-DNA, inhibits glucagon-induced cAMP, CHO cells with human glucagon receptor) is given as “active”; in series [2] (dose-dependent inhibition of GIP-induced cAMP, variant of 259-H6-002 (aptamer)) it was “active”.

As to “ACTCGAGAGGAAAGGTTGGTAAAGGTTCGGTTGGATTCACTCGAGT [259-H6-002-R13]”, the “functional effect of the aptamer” value in series [1] (L-DNA with L-ribo A at position 13, improved vs 259-H6-002, variant of 259-H6-002 (spiegelmer)) is given as “active”.

On to “ACTCGAGAGGAAAGGTTGGTAAAGGTTCGGTTGGAUTCACTCGAGT [259-H6-002-R13/24/36]”, for which, in series [1] (L-DNA with L-ribo rA13, rG24, rU36, further improved vs 259-H6-002-R13, variant of 259-H6-002 (spiegelmer)), the “functional effect of the aptamer” value is reported as “active”.

Regarding “AGTGGGGAAATGGGAGGGCTAGGTGGAAGGAATCTGAGCTACT [257-E1-6xR-004]”, the binding result in series [3] (setting [9]) is listed as “binds”.

Regarding “CGCGGGGAAATGGGAGGGCTAGGTGGAAGGAATCTGAGCCGCG [257-E1-6xR-020]”, the binding result in series [3] (setting [10]) is “binds”.

Consider “CGGGGAAATGGGAGGGCTAGGTGGAAGGAATCTGAGCCG [257-E1-6xR-031]”, for which the binding result in series [3] (setting [11]) is on record as “binds more weakly”.

In the case of “GAGCCGGGAAATGGGAGGGCTAGGTGGAAGGAATCTGAGCGGCTC [257-E1-6xR-014]”, the binding result in series [3] (setting [9]) is “binds”.

With “GAGCGGGGAAATGGGAGGGCTAGGTGGAAGGAATCTGAGCCGCTC [257-E1-6xR-013]”, the binding result in series [3] (setting [10]) is reported as “binds”.

With “GAGTCGGGAAATGGGAGGGCTAGGTGGAAGGAATCTGAGCGACTC [257-E1-6xR-017]”, in series [3] (setting [9]), the binding result is given as “binds”.

“GAGTGGGGAAATGGGAGGGCTAGGTGGAAGGAATCTGAGCCACTC [257-E1-6xR-015]”: the binding result in series [3] (setting [9]) is on record as “binds”.

Take “GAGTGGGGAAATGGGAGGGCTAGGTGGAAGGAATCTGAGCTACTC [257-E1-6xR-003]”: in series [3] (setting [9]), the binding result was “binds”.

As for “GCAGTGGGGAAATGGGAGGGCTAGGTGGAAGGAATCTGAGCTACTGC [257-E1-001 (spiegelmer)]”, in series [2] (no inhibition of GIP-induced cAMP, variant of 257-E1-001 (aptamer)), the “functional effect of the aptamer” value is “not active”.

As to “GCAGTGGGGAAATGGGAGGGCTAGGTGGAAGGAATCTGAGCTACTGC [257-E1-6xR-001]”, the results for the binding result in series [4] (setting [12]) and in series [5] (setting [12]) were “binds” and “no binding”, respectively.

Take “GCCGAGAGGAAAGGTTGGTAAAGGTTCGGTTGGATTCACTCGGC [259-H6-014-R12 (spiegelmer)]”: the binding result in series [6] (L-DNA with L-rA12, improved vs 259-H6-002, variant of 259-H6-002 (spiegelmer)) was “binds”.

On to “GCCGAGAGGAAAGGTTGGTAAAGGTTCGGTTGGAUTCACTCGGC [259-H6-014-R12/23/29/35/38]”, for which, in series [6] (L-DNA with L-rA12, L-rG23, L-rG29, L-rU35, L-rA38, improved vs 259-H6-002, variant of 259-H6-014-R12 (spiegelmer)), the binding result is “binds”.

Consider “GCCGAGAGGAAAGGTTGGTAAAGGTTCGGTTGGAUTCACTCGGC [259-H6-014-R12/23/35]”, for which the binding result in series [6] (L-DNA with L-rA12, L-rG23, L-rU35, improved vs 259-H6-002, variant of 259-H6-014-R12 (spiegelmer)) is recorded as “binds”.

As for “GCGCCGGGAAATGGGAGGGCTAGGTGGAAGGAATCTGAGCGGCGC [257-E1-6xR-012]”, the binding result in series [3] (setting [10]) is listed as “binds”.

With “GCGCGGGGAAATGGGAGGGCTAGGTGGAAGGAATCTGAGCCGCGC [257-E1-6xR-010]”, in series [3] (setting [10]), the binding result was “binds”.

Regarding “GCGCGGGGAAATGGGAGGGCTAGGTGGAAGGAATCTGAGCCGCGC [257-E1-7xR-023]”, the binding result in series [3] (L-DNA with L-ribonucleotides rG,rG,rG,rG,rT,rA,rA at central-stretch positions 2,8,11,12,19,22,23, improved vs 257-E1-001, similar to 257-E1-6xR-010, synthetic protein, variant of 257-E1-6xR-010) is on record as “binds”.

In the case of “GCGCGGGGAAATGGGAGGGCTAGGTGGAAGGAATCTGAGCTGCGC [257-E1-6xR-008]”, the binding result in series [3] (setting [10]) is “binds”.

In the case of “GCGGGAAATGGGAGGGCTAGGTGGAAGGAATCTGAGCGC [257-E1-6xR-030]”, the binding result in series [3] (setting [11]) is reported as “binds more weakly”.

For the sequence “GCGGGAAATGGGAGGGCTAGGTGGAAGGAATCTGAGCGC [257-E1-7xR-037]”, the binding result in series [3] (L-DNA with L-ribonucleotides rG,rG,rG,rG,rT,rA,rA at central-stretch positions 2,8,11,12,19,22,23, almost the same affinity as 257-E1-7xR-023, synthetic …, variant of 257-E1-7xR-023) is listed as “binds”; in series [4] (setting [13]), “binds”; in series [5] (setting [13]), “no binding”.

In the case of “GCGGGAAATGGGAGGGCTAGGTGGAAGGAATCTGAGCGC [NOX-G15 (257-E1-6xR-030-5'-PEG)]”, the binding result is given as “no binding” in series [7] (L-DNA with L-ribonucleotides rG,rG,rG,rG,rA,rA at central-stretch positions 2,8,11,12,22,23, not recognized, competitor up to 2000 nM, variant of 257-E1-6xR-030); “no binding” in series [8] (L-DNA with L-ribonucleotides rG,rG,rG,rG,rA,rA at central-stretch positions 2,8,11,12,22,23, variant of 257-E1-6xR-030); “binds” in series [4] (5'-40 kDa PEG, L-DNA with L-ribonucleotides rG,rG,rG,rG,rA,rA at central-stretch positions 2,8,11,12,22,23, variant of 257-E1-6xR-030); “no binding” in series [5] (5'-40 kDa PEG, L-DNA with L-ribonucleotides rG,rG,rG,rG,rA,rA at central-stretch positions 2,8,11,12,22,23, competitor up to 2000 nM, variant of 257-E1-6xR-030); “binds” in series [6] (5'-40 kDa PEG, L-DNA with L-ribonucleotides rG,rG,rG,rG,rA,rA at central-stretch positions 2,8,11,12,22,23, 37 C, variant of 257-E1-6xR-030). For the same sequence, the IC50 in series [1] (L-DNA with L-ribonucleotides rG,rG,rG,rG,rA,rA at central-stretch positions 2,8,11,12,22,23, CHO cells with human glucagon receptor, variant of 257-E1-6xR-030) was 3.44 nM.

Take “GCGGGAAATGGGAGGGCTAGGTGGAAGGAATCTGAGCGC [NOX-G16 (257-E1-7xR-037-5'-PEG)]”: the binding result in series [7] (L-DNA with seven L-ribonucleotides, competitive Biacore, 37 C, purified recombinant protein, synthetic backbone) is reported as “no binding”; in series [8] (L-DNA with L-ribonucleotides rG,rG,rG,rG,rT,rA,rA at central-stretch positions 2,8,11,12,19,22,23, variant of 257-E1-7xR-037), “no binding”; in series [4] (5'-40 kDa PEG, L-DNA with L-ribonucleotides rG,rG,rG,rG,rT,rA,rA at central-stretch positions 2,8,11,12,19,22,23, variant of 257-E1-7xR-037), “binds”; in series [5] (5'-40 kDa PEG, L-DNA with L-ribonucleotides rG,rG,rG,rG,rT,rA,rA at central-stretch positions 2,8,11,12,19,22,23, competitor up to 2000 nM, variant of 257-E1-7xR-037) it was “no binding”; in series [6] (5'-40 kDa PEG, L-DNA with L-ribonucleotides rG,rG,rG,rG,rT,rA,rA at central-stretch positions 2,8,11,12,19,22,23, 37 C, NOX-G16 kinetics (FIG. 16), variant of 257-E1-7xR-037) it was “binds”. The IC50 in series [1] (L-DNA with L-ribonucleotides rG,rG,rG,rG,rT,rA,rA at central-stretch positions 2,8,11,12,19,22,23, CHO cells with human glucagon receptor, variant of 257-E1-7xR-037) worked out at 2.43 nM.

With “GCGGGGAAATGGGAGGGCTAGGTGGAAGGAATCTGAGCCGC [257-E1-6xR-029]”, in series [3] (setting [11]), the binding result is “binds more weakly”.

As to “GCGTCGGGAAATGGGAGGGCTAGGTGGAAGGAATCTGAGCGACGC [257-E1-6xR-018]”, in series [3] (setting [10]), the binding result was “binds”.

In the case of “GCGTGGGGAAATGGGAGGGCTAGGTGGAAGGAATCTGAGCCACGC [257-E1-6xR-016]”, the binding result in series [3] (setting [10]) is “binds”.

Consider “GCGTGGGGAAATGGGAGGGCTAGGTGGAAGGAATCTGAGCTACGC [257-E1-6xR-006]”, for which, in series [3] (setting [9]), the binding result is “binds”.

With “GGCGGGGAAATGGGAGGGCTAGGTGGAAGGAATCTGAGCCGCC [257-E1-6xR-019]”, the binding result in series [3] (L-DNA with L-ribonucleotides rG,rG,rG,rG,rA,rA at central-stretch positions 2,8,11,12,22,23, among best of five-nucleotide terminal stretches, synthetic …, variant of 257-E1-6xR-001) was “binds”.

Consider “GGGAAATGGGAGGGCTAGGTGGAAGGAATCTGAGC [257-E1-6xR-033]”, for which the binding result in series [3] (setting [11]) is on record as “binds more weakly”.

For the sequence “GGGCCGGGAAATGGGAGGGCTAGGTGGAAGGAATCTGAGCGGCCC [257-E1-6xR-011]”, in series [3] (setting [10]), the binding result is “binds”.

As to “GGGCGGGGAAATGGGAGGGCTAGGTGGAAGGAATCTGAGCCGCCC [257-E1-6xR-009]”, the binding result in series [3] (setting [9]) is recorded as “binds”.

Consider “GGGCGGGGAAATGGGAGGGCTAGGTGGAAGGAATCTGAGCTGCCC [257-E1-6xR-007]”, for which the binding result in series [3] (setting [9]) is “binds”.

On to “GGGGAAATGGGAGGGCTAGGTGGAAGGAATCTGAGCC [257-E1-6xR-032]”, for which the binding result in series [3] (setting [11]) is listed as “binds more weakly”.

As for “GGGTGGGGAAATGGGAGGGCTAGGTGGAAGGAATCTGAGCTACCC [257-E1-6xR-005]”, the binding result in series [3] (setting [9]) is listed as “binds”.
